Laboratory results published in ChEMBL document CHEMBL1687929, “Design, synthesis, and biological evaluation of imidazolyl derivatives of 4,7-disubstituted coumarins as aromatase inhibitors selective over 17-α-hydroxylase/C17-20 lyase” (J Med Chem, 2011).

Target: T1, CYP17 (steroid 17-alpha-hydroxylase/17,20 lyase) (Homo sapiens, UniProt P05093)
T1 sequence (P05093 whole entry): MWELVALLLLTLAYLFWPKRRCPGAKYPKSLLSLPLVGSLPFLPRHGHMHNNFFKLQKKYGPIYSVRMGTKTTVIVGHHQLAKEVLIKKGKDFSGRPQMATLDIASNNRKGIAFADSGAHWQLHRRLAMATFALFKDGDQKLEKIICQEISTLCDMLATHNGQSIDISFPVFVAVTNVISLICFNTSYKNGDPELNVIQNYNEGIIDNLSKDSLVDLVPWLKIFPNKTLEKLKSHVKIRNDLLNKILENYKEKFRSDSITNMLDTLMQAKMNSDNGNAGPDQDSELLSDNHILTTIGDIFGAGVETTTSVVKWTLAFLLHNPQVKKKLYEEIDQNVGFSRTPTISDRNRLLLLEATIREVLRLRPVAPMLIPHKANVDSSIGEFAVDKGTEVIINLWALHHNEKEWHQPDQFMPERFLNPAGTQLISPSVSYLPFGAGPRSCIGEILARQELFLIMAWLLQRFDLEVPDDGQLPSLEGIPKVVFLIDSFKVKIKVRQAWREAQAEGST
Assay: in vitro

N#Cc1ccc(C2CCCc3cncn32)cc1 (stereo unspecified) [FADROZOLE]
inhibition at 2.5 µM: 2%
